Results: PMC3176313
Results are given in words; binding and its absence hold for the method and conditions named. Binding seen in cells or lysates may run through a third protein. Some entries that bind do so weakly or less than the wild type. Tags and fused reporters may be left off the sequences shown.

Protein sequences, listed by entry. Tags and fused reporters are not part of them.
UniProt P10964: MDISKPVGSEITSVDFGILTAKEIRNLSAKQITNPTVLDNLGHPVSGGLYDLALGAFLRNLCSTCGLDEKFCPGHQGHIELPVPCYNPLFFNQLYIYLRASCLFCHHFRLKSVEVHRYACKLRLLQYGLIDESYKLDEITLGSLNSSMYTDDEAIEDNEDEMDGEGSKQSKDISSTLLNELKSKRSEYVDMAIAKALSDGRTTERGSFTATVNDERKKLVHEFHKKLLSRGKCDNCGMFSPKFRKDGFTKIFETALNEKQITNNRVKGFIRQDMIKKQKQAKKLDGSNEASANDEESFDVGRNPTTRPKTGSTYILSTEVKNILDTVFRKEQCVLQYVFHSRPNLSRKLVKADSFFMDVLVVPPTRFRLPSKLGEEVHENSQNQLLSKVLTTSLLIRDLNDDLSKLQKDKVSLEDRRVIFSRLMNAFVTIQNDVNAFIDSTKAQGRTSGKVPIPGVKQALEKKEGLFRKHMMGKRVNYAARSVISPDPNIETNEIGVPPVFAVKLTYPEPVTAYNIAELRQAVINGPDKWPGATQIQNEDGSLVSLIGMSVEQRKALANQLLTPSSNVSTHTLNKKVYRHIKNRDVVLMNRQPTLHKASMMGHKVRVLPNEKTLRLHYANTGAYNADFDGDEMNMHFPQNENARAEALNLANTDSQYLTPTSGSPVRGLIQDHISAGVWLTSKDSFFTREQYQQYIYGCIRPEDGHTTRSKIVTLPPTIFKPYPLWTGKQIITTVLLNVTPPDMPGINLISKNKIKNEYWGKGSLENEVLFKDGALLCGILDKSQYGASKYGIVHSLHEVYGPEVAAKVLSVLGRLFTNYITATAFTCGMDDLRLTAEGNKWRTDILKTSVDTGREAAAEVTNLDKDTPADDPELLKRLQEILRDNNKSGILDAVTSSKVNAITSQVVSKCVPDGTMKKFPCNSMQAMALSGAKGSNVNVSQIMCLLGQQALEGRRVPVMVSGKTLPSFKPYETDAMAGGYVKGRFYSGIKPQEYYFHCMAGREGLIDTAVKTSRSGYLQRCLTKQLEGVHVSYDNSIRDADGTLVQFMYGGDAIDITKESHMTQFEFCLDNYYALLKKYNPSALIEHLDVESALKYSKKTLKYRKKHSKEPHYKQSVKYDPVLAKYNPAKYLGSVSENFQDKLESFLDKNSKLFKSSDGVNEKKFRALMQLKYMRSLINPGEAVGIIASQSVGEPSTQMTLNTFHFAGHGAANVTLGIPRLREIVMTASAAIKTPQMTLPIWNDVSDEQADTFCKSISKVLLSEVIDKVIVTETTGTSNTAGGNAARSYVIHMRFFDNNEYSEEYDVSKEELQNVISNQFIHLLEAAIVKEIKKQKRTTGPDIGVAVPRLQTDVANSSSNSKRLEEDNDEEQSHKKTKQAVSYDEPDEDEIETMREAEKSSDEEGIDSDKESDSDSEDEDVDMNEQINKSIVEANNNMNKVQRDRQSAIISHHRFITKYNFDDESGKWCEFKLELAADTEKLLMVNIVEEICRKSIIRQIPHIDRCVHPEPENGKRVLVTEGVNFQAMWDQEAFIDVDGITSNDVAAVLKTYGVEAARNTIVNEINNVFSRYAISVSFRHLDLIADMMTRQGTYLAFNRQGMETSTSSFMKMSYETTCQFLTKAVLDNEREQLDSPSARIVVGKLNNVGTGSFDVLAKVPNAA

T1: Spt5-TAP fusion (budding yeast) (UniProt P27692)
T1 sequence: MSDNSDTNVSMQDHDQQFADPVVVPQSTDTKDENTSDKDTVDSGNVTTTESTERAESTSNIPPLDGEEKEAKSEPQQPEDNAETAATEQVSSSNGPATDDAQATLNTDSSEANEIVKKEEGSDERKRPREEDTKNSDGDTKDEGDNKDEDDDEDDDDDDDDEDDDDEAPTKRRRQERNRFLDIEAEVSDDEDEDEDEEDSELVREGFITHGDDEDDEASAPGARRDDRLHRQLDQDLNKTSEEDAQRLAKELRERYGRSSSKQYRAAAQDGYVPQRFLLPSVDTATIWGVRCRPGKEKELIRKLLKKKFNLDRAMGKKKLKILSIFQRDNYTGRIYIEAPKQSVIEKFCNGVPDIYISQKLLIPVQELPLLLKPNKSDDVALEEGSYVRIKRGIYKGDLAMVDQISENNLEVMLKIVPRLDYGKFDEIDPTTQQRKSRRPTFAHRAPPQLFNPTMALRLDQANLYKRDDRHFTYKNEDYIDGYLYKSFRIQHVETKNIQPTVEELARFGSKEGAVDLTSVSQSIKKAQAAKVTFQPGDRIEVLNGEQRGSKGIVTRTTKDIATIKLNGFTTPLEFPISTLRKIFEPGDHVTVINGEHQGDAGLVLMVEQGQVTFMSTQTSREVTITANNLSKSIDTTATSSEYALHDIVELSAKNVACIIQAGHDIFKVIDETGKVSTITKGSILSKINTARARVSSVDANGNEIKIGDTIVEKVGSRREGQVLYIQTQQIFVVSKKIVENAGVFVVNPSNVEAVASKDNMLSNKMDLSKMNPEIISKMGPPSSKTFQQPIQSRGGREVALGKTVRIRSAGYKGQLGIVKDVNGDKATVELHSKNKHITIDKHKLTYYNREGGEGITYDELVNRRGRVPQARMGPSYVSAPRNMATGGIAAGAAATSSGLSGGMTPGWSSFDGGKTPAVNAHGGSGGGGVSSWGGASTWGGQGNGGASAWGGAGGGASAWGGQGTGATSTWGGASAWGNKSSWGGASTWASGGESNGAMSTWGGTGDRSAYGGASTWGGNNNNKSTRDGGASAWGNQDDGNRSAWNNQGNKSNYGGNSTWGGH

T2: Nrd1-TAP (budding yeast) (UniProt P53617)
T2 sequence: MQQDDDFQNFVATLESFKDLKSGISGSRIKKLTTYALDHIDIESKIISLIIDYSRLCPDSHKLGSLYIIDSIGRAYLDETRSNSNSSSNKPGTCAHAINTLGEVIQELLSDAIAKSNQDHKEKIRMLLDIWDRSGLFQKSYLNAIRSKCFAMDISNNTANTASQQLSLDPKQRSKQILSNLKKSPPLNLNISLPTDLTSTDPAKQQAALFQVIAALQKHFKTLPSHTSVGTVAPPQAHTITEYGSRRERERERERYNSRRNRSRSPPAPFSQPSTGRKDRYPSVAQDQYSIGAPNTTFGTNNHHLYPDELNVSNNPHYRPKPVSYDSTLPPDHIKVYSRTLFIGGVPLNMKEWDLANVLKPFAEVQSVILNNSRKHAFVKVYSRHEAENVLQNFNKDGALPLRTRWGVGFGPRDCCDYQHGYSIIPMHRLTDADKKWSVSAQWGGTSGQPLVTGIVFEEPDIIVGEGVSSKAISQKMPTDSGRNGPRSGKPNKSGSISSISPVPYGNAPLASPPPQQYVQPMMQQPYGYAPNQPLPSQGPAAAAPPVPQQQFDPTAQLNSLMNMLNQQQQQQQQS


Assays:
Test in all cases: co-IP; glass-bead yeast lysates in IP buffer (20 mM HEPES pH 7.5, EDTA, 100 mM NaCl, 20% glycerol, 0.05% NP-40); TAP-tagged bait captured on IgG-coated magnetic beads, 2 h at 21°C; washes with IP buffer supplemented with 150 mM NaCl; HA-tagged prey detected by Western blot
[1] = biological target: T1, Spt5-TAP fusion (budding yeast)
Nrd1-TAP (budding yeast) = biological target: T2, Nrd1-TAP (budding yeast)
[2] = biological target: Rpa190-TAP (budding yeast) (UniProt P10964)

| binding [1] | binding (Nrd1-TAP (budding yeast)) | binding [2] | Binder |
| --- | --- | --- | --- |
| binds | – | – | Nrd1-HA fusion (protein, UniProt P53617 1-575) MQQDDDFQNFVATLESFKDLKSGISGSRIKKLTTYALDHIDIESKIISLIIDYSRLCPDSHKLGSLYIIDSIGRAYLDETRSNSNSSSNKPGTCAHAINTLGEVIQELLSDAIAKSNQDHKEKIRMLLDIWDRSGLFQKSYLNAIRSKCFAMDISNNTANTASQQLSLDPKQRSKQILSNLKKSPPLNLNISLPTDLTSTDPAKQQAALFQVIAALQKHFKTLPSHTSVGTVAPPQAHTITEYGSRRERERERERYNSRRNRSRSPPAPFSQPSTGRKDRYPSVAQDQYSIGAPNTTFGTNNHHLYPDELNVSNNPHYRPKPVSYDSTLPPDHIKVYSRTLFIGGVPLNMKEWDLANVLKPFAEVQSVILNNSRKHAFVKVYSRHEAENVLQNFNKDGALPLRTRWGVGFGPRDCCDYQHGYSIIPMHRLTDADKKWSVSAQWGGTSGQPLVTGIVFEEPDIIVGEGVSSKAISQKMPTDSGRNGPRSGKPNKSGSISSISPVPYGNAPLASPPPQQYVQPMMQQPYGYAPNQPLPSQGPAAAAPPVPQQQFDPTAQLNSLMNMLNQQQQQQQQS |
| – | binds | binds | full-length Spt5-HA fusion (protein, UniProt P27692 1-1063) MSDNSDTNVSMQDHDQQFADPVVVPQSTDTKDENTSDKDTVDSGNVTTTESTERAESTSNIPPLDGEEKEAKSEPQQPEDNAETAATEQVSSSNGPATDDAQATLNTDSSEANEIVKKEEGSDERKRPREEDTKNSDGDTKDEGDNKDEDDDEDDDDDDDDEDDDDEAPTKRRRQERNRFLDIEAEVSDDEDEDEDEEDSELVREGFITHGDDEDDEASAPGARRDDRLHRQLDQDLNKTSEEDAQRLAKELRERYGRSSSKQYRAAAQDGYVPQRFLLPSVDTATIWGVRCRPGKEKELIRKLLKKKFNLDRAMGKKKLKILSIFQRDNYTGRIYIEAPKQSVIEKFCNGVPDIYISQKLLIPVQELPLLLKPNKSDDVALEEGSYVRIKRGIYKGDLAMVDQISENNLEVMLKIVPRLDYGKFDEIDPTTQQRKSRRPTFAHRAPPQLFNPTMALRLDQANLYKRDDRHFTYKNEDYIDGYLYKSFRIQHVETKNIQPTVEELARFGSKEGAVDLTSVSQSIKKAQAAKVTFQPGDRIEVLNGEQRGSKGIVTRTTKDIATIKLNGFTTPLEFPISTLRKIFEPGDHVTVINGEHQGDAGLVLMVEQGQVTFMSTQTSREVTITANNLSKSIDTTATSSEYALHDIVELSAKNVACIIQAGHDIFKVIDETGKVSTITKGSILSKINTARARVSSVDANGNEIKIGDTIVEKVGSRREGQVLYIQTQQIFVVSKKIVENAGVFVVNPSNVEAVASKDNMLSNKMDLSKMNPEIISKMGPPSSKTFQQPIQSRGGREVALGKTVRIRSAGYKGQLGIVKDVNGDKATVELHSKNKHITIDKHKLTYYNREGGEGITYDELVNRRGRVPQARMGPSYVSAPRNMATGGIAAGAAATSSGLSGGMTPGWSSFDGGKTPAVNAHGGSGGGGVSSWGGASTWGGQGNGGASAWGGAGGGASAWGGQGTGATSTWGGASAWGNKSSWGGASTWASGGESNGAMSTWGGTGDRSAYGGASTWGGNNNNKSTRDGGASAWGNQDDGNRSAWNNQGNKSNYGGNSTWGGH |
